PubChem BioAssay AID686943 | Drosophila RNAi Screening Center – 2013
The screen tested about 23,000 reagents; this is a random part of those that have a named target and a result. 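Extra replicates exist only for a retested subset of genes; insulin dose and duration not given; both raised and lowered dpERK matter.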 A plus sign joins genes that one reagent is predicted to hit. Not all columns of the deposit are shown. No sequences are given here. The record does not give: the amount of reagent, the time to read-out.

Test: 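Knockdowns that increase or decrease active ERK after insulin receptor stimulation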 (primary screen)
System: Drosophila S2R+ haemocyte-like cells expressing YFP-tagged ERK (Rolled)
Knock-down reagent: long dsRNA against Drosophila genes
Conditions: insulin stimulation versus unstimulated cells; dose and duration not given
Measurement: 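Per-plate z-scores of phospho-ERK immunostaining normalised to YFP-tagged ERK, measured with and without insulin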
Reading the numbers: replicate 1, z-score of dpERK with insulin: higher = more active ERK per ERK-YFP after insulin

replicate 1, z-score of dpERK with insulin, by gene and reagent
LIMK1: DRSC19811 0.18
CG13339: DRSC06373 0.14
PXo: DRSC09734 0.2
SdhCL: DRSC16078 1.06
Rint1: DRSC11010 -0.17
CG33268: DRSC10143 0.43
CG15515: DRSC15054 -0.14
numb: DRSC03584 0.17
mthl11: DRSC12779 -0.94
CG4768: DRSC19917 0.29
CG7492: DRSC10855 0.03
Spx: DRSC18720 0.11
CG13324: DRSC06361 -0.77
CG13018: DRSC06274 0
iav: DRSC18363 -0.41
botv: DRSC05949 0.24
Tdg: DRSC17119 0.02; DRSC17169 0.12
Tspo + rempA: DRSC00533 0.47
Vps35: DRSC04519 0.46
Toll-6: DRSC11304 0.38

Quoted from the listing for reference:
replicate 1, z-score of dpERK with insulin, by gene and reagent
PXo: DRSC09734 0.2
SdhCL: DRSC16078 1.06
Rint1: DRSC11010 -0.17
CG33268: DRSC10143 0.43
CG15515: DRSC15054 -0.14
numb: DRSC03584 0.17

Next results follow.
replicate 1, z-score of dpERK with insulin, by gene and reagent
Cyp6d5: DRSC16634 -0.13
RPA1: DRSC16830 -0.36
Pcp: DRSC03395 -0.17
CG15423: DRSC00437 0.68
intr: DRSC14528 0.6
HisRS: DRSC19986 -0.43
Hsp70Bb + Hsp70Ba + Hsp70Bc + 1 more: DRSC21247 -2.39; DRSC21248 -1.98
Coa7: DRSC20967 -0.48
CG17801: DRSC15273 -0.21
Sdc: DRSC04654 0.41
Mal-A6: DRSC07233 0.39
CG17191: DRSC15185 -0.01
Obp50b + Obp50c: DRSC21818 0.17
Mayo: DRSC14300 -0.06
RpS26: DRSC03420 -3.85
Tsp42Ee: DRSC05947 -0.01
CG34370: DRSC03913 0.27; DRSC04142 0.82; DRSC04143 -0.58; DRSC04144 -1.14
ND-B14.5A: DRSC18500 0.05
E(spl)m7-HLH: DRSC16696 0.3
Karybeta3: DRSC12355 -0.13
CG6610: DRSC10674 1.95
CG13096: DRSC02198 0.04
Vps25: DRSC06486 0
Alp10: DRSC09749 -0.26
amx: DRSC18736 -0.59
CG18011: DRSC06697 0.66; DRSC06706 0.64
CG17826: DRSC10289 0.85
Fum4: DRSC22577 -0.11
CG8435: DRSC07179 1.28
Phf5a: DRSC03261 2.84
Fad2: DRSC11165 -1.75
